Experimental data reported in the supplement of paper PMC8975748.
Counter-ions that a name gives are not always drawn. ± gives the standard deviation of the averaged measurements. The list shows a part of the results. These are raw signals, not scaled to a control.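 The yeast community starts from one strain carrying four plasmids, each with an amino-acid or uracil synthesis gene and a fluorescent protein. Random plasmid loss creates mixed prototroph and auxotroph subpopulations. Cells were fixed and counted by automated confocal fluorescence imaging, and DMSO-treated wells served as the vehicle reference.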

tested on: Saccharomyces cerevisiae BY4741 SeMeCo community; assay: imaged cell count per well (cells); higher = more cells; conditions: 10 µM; 24 h; SM minimal medium
Description: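 Same SeMeCo high-content imaging drug screen: Selleck FDA-approved drugs at 10 µM, 24 h in SM medium, 384-well plates, 3 replicates.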

Structure (SMILES) | imaged cell count per well
C[C@]12CCC3=C4CCC(=O)C=C4CC[C@H]3[C@@H]1CC[C@@]2(O)CC#N [Dienogest] | 25700 ± 3000
CN(Cc1cnc2nc(N)nc(N)c2n1)c1ccc(C(=O)N[C@@H](CCC(=O)O)C(=O)O)cc1 [Methotrexate] | 5000 ± 480
CC(=O)O[C@]1(C(C)=O)CC[C@H]2[C@@H]3C[C@H](C)C4=CC(=O)CC[C@]4(C)[C@H]3CC[C@@]21C [Medroxyprogesterone acetate] | 21000 ± 4300
CC(=O)Oc1ccc(C(=C2CCCCC2)c2ccc(OC(C)=O)cc2)cc1 [Cyclofenil] | 20600 ± 5700
Nc1nc2[nH]cc(CCc3ccc(C(=O)N[C@@H](CCC(=O)O)C(=O)O)cc3)c2c(=O)[nH]1 [Pemetrexed] | 14800 ± 1400
O=C(O)c1cc(-c2ccc(F)cc2F)ccc1O [Diflunisal] | 20500 ± 3800
CC[C@H](C)C(=O)O[C@H]1C[C@@H](C)C=C2C=C[C@H](C)[C@H](CC[C@@H]3C[C@@H](O)CC(=O)O3)[C@H]21 [Lovastatin] | 23200 ± 2200
Cc1c(-c2ccc(O)cc2)n(Cc2ccc(OCCN3CCCCCC3)cc2)c2ccc(O)cc12 [Bazedoxifene HCl] | 20000 ± 4700
CN(C)CCn1nnnc1SCC1=C(C(=O)O)N2C(=O)[C@@H](NC(=O)Cc3csc(N)n3)[C@H]2SC1 [Cefotiam hydrochloride] | 25200 ± 3400
CN[C@H](CC(C)C)C(=O)N[C@H]1C(=O)N[C@@H](CC(N)=O)C(=O)N[C@H]2C(=O)N[C@H]3C(=O)N[C@H](C(=O)N[C@H](C(=O)O)c4cc(O)cc(O)c4-c4cc3ccc4O)[C@H](O)c3ccc(c(Cl)c3)Oc3cc2cc(c3O[C@@H]2O[C@H](CO)[C@@H](O)[C@H](O)[C@H]2O[C@H]2C[C@](C)(N)[C@H](O)[C@H](C)O2)Oc2ccc(cc2Cl)[C@H]1O [Vancomycin HCl] | 22100 ± 3100
CCN1CCN(c2cc3c(cc2F)c(=O)c(C(=O)O)cn3C2CC2)CC1 [Enrofloxacin] | 27100 ± 2600
OC(c1ccccc1)(c1ccccc1)C12CC[N+](CCOCc3ccccc3)(CC1)CC2 [Umeclidinium bromide] | 23000 ± 1800
C[C@@H](O)[C@H]1C(=O)N2C(C(=O)O)=C(S[C@@H]3CN[C@H](CNS(N)(=O)=O)C3)[C@H](C)[C@H]12 [Doripenem Hydrate] | 26500 ± 1100
COC(=O)C1=C(C)NC(C)=C(C(=O)OC2CCCN(Cc3ccccc3)C2)C1c1cccc([N+](=O)[O-])c1 (centres undefined) [Benidipine HCl] | 21600 ± 4800
CCC[S+]([O-])c1ccc2[nH]c(NC(=O)OC)nc2c1 (centres undefined) [Albendazole Oxide] | 23900 ± 9200
C[N+](C)(C)CCO.[Cl-] [Choline Chloride] | 32000 ± 6600
Cc1ccc(C(=O)C(C)CN2CCCCC2)cc1 (centres undefined) [Tolperisone HCl] | 21900 ± 3400
CC[C@H](C)C(=O)O[C@H]1C[C@H](O)C=C2C=C[C@H](C)[C@H](CC[C@@H](O)C[C@@H](O)CC(=O)O)[C@H]21 [Pravastatin] | 27700 ± 3200
Clc1ccc(COC(Cn2ccnc2)c2ccc(Cl)cc2Cl)c(Cl)c1 (centres undefined) [Miconazole Nitrate] | 3180 ± 630
COCCOC(=O)C1=C(C)NC(C)=C(C(=O)OC/C=C/c2ccccc2)C1c1cccc([N+](=O)[O-])c1 (centres undefined) [Cilnidipine] | 27800 ± 11000

Structure (SMILES) | imaged cell count per well
CO/N=C(\C(=O)N[C@@H]1C(=O)N2C(C(=O)O)=C(COC(N)=O)CS[C@H]12)c1ccco1 [Cefuroxime sodium] | 26700 ± 500
OCCOCCN1CCN(C2=Nc3ccccc3Sc3ccccc32)CC1 [Quetiapine Fumarate] | 22800 ± 2600
CC(C(=O)O)c1ccc2c(c1)CC(=O)c1ccccc1S2 (centres undefined) [Zaltoprofen] | 15900 ± 900
COc1cc(NS(=O)(=O)c2ccc(N)cc2)ncn1 [Sulfamonomethoxine] | 25400 ± 4800
CCOC(=O)C1=C[C@@H](OC(CC)CC)[C@H](NC(C)=O)[C@@H](N)C1 [Oseltamivir Phosphate] | 24200 ± 2700
CC(C)COCC(CN(Cc1ccccc1)c1ccccc1)N1CCCC1 (centres undefined) [Bepridil hydrochloride] | 16700 ± 4900
O=C(O)c1ccccc1C(=O)Nc1ccc(S(=O)(=O)Nc2nccs2)cc1 [Phthalylsulfathiazole] | 27700 ± 4000
CCc1c2c(nc3ccc(OC(=O)N4CCC(N5CCCCC5)CC4)cc13)-c1cc3c(c(=O)n1C2)COC(=O)[C@]3(O)CC [Irinotecan HCl Trihydrate] | 21100 ± 8000
Cc1nc(NC(=O)N2CCC[C@H]2C(N)=O)sc1-c1ccnc(C(C)(C)C(F)(F)F)c1 [Alpelisib (BYL719)] | 20600 ± 4900
CO[C@H]1C[C@@H]2CC[C@@H](C)[C@@](O)(O2)C(=O)C(=O)N2CCCC[C@H]2C(=O)O[C@H]([C@H](C)C[C@@H]2CC[C@@H](O)[C@H](OC)C2)CC(=O)[C@H](C)/C=C(\C)[C@@H](O)[C@@H](OC)C(=O)[C@H](C)C[C@H](C)/C=C/C=C/C=C/1C [Rapamycin (Sirolimus)] | 10700 ± 1300
NC(=O)N1c2ccccc2C=Cc2ccccc21 [Carbamazepine] | 22400 ± 1200
CO/N=C(/C(=O)N[C@@H]1C(=O)N2C(C(=O)OCOC(=O)C(C)(C)C)=C(C)CS[C@H]12)c1csc(N)n1 [Cefetamet pivoxil hydrochloride] | 22100 ± 4700
CO/N=C(\C(=O)N[C@@H]1C(=O)N2C(C(=O)O)=C(COC(C)=O)CS[C@H]12)c1csc(N)n1 [Cefotaxime sodium] | 23200 ± 3500
O=c1[nH]cc(F)c(=O)[nH]1 [Fluorouracil (5-Fluoracil, 5-FU)] | 1850 ± 150
O=C(O)CCC(=O)OC[C@@H](NC(=O)C(Cl)Cl)[C@H](O)c1ccc([N+](=O)[O-])cc1 [Chloramphenicol sodium succinate] | 27900 ± 1800
Cc1cc(NS(=O)(=O)c2ccc(N)cc2)no1 [Sulfamethoxazole] | 23800 ± 4800
COc1cc2c(cc1OC)C(=O)C(CC1CCN(Cc3ccccc3)CC1)C2 (centres undefined) [Donepezil HCl] | 26900 ± 8600
CC1(C)S[C@@H]2[C@H](NC(=O)[C@H](N)c3ccc(O)cc3)C(=O)N2[C@H]1C(=O)O [Amoxicillin trihydrate] | 24200 ± 3600
CC[N+](CC)(CC)CCOc1cccc(OCC[N+](CC)(CC)CC)c1OCC[N+](CC)(CC)CC [Gallamine Triethiodide] | 19200 ± 5000

An excerpt of these results, comma-delimited:
Structure (SMILES),imaged cell count per well
CO[C@H]1C[C@@H]2CC[C@@H](C)[C@@](O)(O2)C(=O)C(=O)N2CCCC[C@H]2C(=O)O[C@H]([C@H](C)C[C@@H]2CC[C@@H](O)[C@H](OC)C2)CC(=O)[C@H](C)/C=C(\C)[C@@H](O)[C@@H](OC)C(=O)[C@H](C)C[C@H](C)/C=C/C=C/C=C/1C [Rapamycin (Sirolimus)],10700 ± 1300
NC(=O)N1c2ccccc2C=Cc2ccccc21 [Carbamazepine],22400 ± 1200
